Results reported in patent US20050228019A1, “Enhancement of ampakine-Induced facilitation of synaptic responses by cholinesterase inhibitors” (priority 2004, published 2005).
Entries after “also recorded” stand apart in the source; their conditions may differ. At least one compound was matched to its structure with a doubt left.

What was measured:
[1] = tested on: lateral olfactory tract (LOT) evoked responses; assay: Lateral olfactory tract (LOT) evoked responses in awake rats; format: in vivo, Long-Evans rats; conditions: physostigmine 0.1 mg/kg ip alone
Protocol: (§1) Chronic recording preparation: Adult male Long-Evans rats with recording and stimulating electrodes chronically implanted into different areas of the brain known to subserve memory were used. The electrodes were stereotaxically inserted under pentobarbital anesthesia (65 mg/kg), using procedures essentially as described in earlier work (Stäubli and Xu, Journal of Neuroscience 15: 2445-2452, 1995; Stäubli and Scafidi, Journal of Neuroscience 17: 4820-4828, 1997). Briefly, monopolar stimulating electrodes (125 μm) were placed into the perforant path projections to hippocampal dentate gyrus and into the lateral olfactory tract projections to olfactory cortex. Following these steps, the leads of the electrodes were connected to a headstage that is permanently affixed to the rat's skull.
(§2) The animals were allowed approximately 10 days for recovery before being acclimated to a chronic recording cage (30×30×58 cm) and the attachment of a recording lead to their headstage. Biphasic stimulation pulses were provided by a digital stimulator that allows precise control of current intensity and pulse duration. […] The evoked responses were monitored on a storage oscilloscope and digitized at 10 kHz. The peak amplitude, half-width and area of each response were measured on-line and stored on disk for off-line analysis. […]

[2] = tested on: perforant path evoked responses in the dentate gyrus; assay: Perforant path evoked responses in the dentate gyrus of awake rats; format: in vivo, Long-Evans rats; conditions: physostigmine 0.1 mg/kg ip alone
Protocol: as §1, §2

## CNC(=O)Oc1ccc2c(c1)[C@]1(C)CCN(C)[C@@H]1N2C [physostigmine, reference compound]
[1]
  effect on LOT responses: did not detectably affect LOT responses
[2]
  effect on perforant path responses: did not affect the size of perforant path responses; also recorded: did not detectably affect perforant path responses
